According to patent US20150175705A1:
These are yes or no findings as the source states them, for the method shown. Some entries that bind do so weakly or less than the wild type.

Legend:
[1] = target: T1, recombinant extracellular domain (ECD) of human prolactin receptor (PRLR), amino acids 25-234 of SEQ ID NO: 2 (human) (UniProt P16471); experiment: Biacore SPR; antibody covalently immobilized on CM4 chip
T1 sequence: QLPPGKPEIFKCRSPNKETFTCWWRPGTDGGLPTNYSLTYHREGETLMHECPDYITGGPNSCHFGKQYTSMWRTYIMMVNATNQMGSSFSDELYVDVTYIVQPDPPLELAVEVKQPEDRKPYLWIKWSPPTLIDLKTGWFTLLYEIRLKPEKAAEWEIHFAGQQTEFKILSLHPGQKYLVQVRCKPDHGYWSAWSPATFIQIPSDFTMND

[2] = target: T1, recombinant extracellular domain (ECD) of human prolactin receptor (PRLR), amino acids 25-234 of SEQ ID NO: 2 (human); experiment: Biacore SPR

B1: he.06.642-2 (antibody, V domains shown)
VH: EVQLVESGGGLVQPGGSLRLSCAVSGFTFSSYGMSWVRQAPGKGLEWVATVSSGGTYTYYPDSVKGRFTISRDNSKNTLYLQMNSLRAEDTAVYYCARHRGNYYATYYYAMDYWGQGTLVTVSS
VL: DIVLTQSPDSLAVSLGERATINCKASKSVSTSGYTYMHWYQQKPGQPPKLLIYLASNRESGVPDRFSGSGSGTDFTLTISPVQAEDVATYYCQHSGELPPSFGQGTKLEIK
What does the source list for B1?
binding [1]: binds; binding [2]: binds

B2: he.06.642-1 (antibody, V domains shown)
VH: EVQLVESGGGLVQPGGSLRLSCAVSGFTFSSYGMSWVRQAPGKRLEWVATVSSGGTYTYYPDSVKGRFTISRDNSKNTLYLQMNSLRAEDTAMYYCARHRGNYYATYYYAMDYWGQGTLVTVSS
VL: DIVLTQSPDSLAVSLGERATINCKASKSVSTSGYTYMHWYQQKPGQPPKLLIYLASNRESGVPDRFSGSGSGTDFTLTISPVQAEDVATYYCQHSGELPPSFGQGTKLEIK
For B2, which binding [2] is on record?
The binding was “binds”.

B3: he.06.275-1 (antibody, V domains shown)
VH: DVQLQESGPGLVKPSQTLSLTCTVTGYSITSDYAWNWIRQFPGKKLEWMGYISYSGSTSYNPSLKSRITISRDTSKNQFSLQLNSVTAADTATYFCARDYGYVFDYWGQGTTLTVSS
VL: DVQITQSPSSLSASPGDRITLTCRASKNIYKYLAWYQEKPGKTNNLLIYSGSTLHSGIPSRFSGSGSGTDFTLTISSLQPEDFAMYYCQQHNDYPYTFGQGTKLEIK
Which binding [2] does the source give for B3 here?
Its binding is “binds”.
